Data from PubChem BioAssay AID720591 (Broad Institute, 2013).
In all, about 1,200 compounds went through this assay and about 60 (5%) were called active. Not shown: some 1% with an inconclusive outcome.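 The calls were made as follows: active = Decreasing signal and fitted IC50 at most twice the top valid tested dose; inconclusive = Bad fit or a level curve showing 30 to 70% inhibition; inactive = the rest.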 Some of the results follow. Entries with a potency or affinity are not part of this list.

Chains of the proteins cited; added tags and fusions are not shown. Lines headed by an entry give the natural chain unless they say otherwise; changes in a name come on top.
UniProt Q9NXA8: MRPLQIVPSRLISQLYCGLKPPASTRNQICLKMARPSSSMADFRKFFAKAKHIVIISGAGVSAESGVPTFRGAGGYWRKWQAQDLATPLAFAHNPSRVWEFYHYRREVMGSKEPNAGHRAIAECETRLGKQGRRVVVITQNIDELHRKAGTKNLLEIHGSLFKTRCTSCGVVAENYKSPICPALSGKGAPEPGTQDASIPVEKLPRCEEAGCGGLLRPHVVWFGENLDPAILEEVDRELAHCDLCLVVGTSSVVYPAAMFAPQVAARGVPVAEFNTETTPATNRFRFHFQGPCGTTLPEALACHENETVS

The molecules below were run against NAD-dependent protein deacylase sirtuin-5, mitochondrial (Homo sapiens) (UniProt Q9NXA8) (assay: SIRT5 desuccinylase inhibitors, dose response, biochemical, fluorescence imaging, cherry-pick, set 5 (AID 720591;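 also: 0% = median of neutral control wells and -100% = median of positive control wells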)). Settings: Purified SirT5, succinyl-peptide AMC, trypsin-coupled fluorescence; at 15 µM (top of the series) unless noted.

Activity change, negative = inhibition, inactive:
CC(C)(C)c1ccc(C(=O)N2[C@H](COCc3ccccc3)C=CS2(=O)=O)cc1 7.89%
CCOc1cc(C(=O)NC(CC(=O)O)c2ccc(OC3CCCC3)cc2)cc(OCC)c1OCC (stereo not given) -27.9%
CC(C)[C@H](NC(=O)N1CCn2c1nc1ccccc12)C(=O)NCc1ccc2c(c1)OCO2 -4.97%
Nc1nccc(-c2ccc(-n3cnc4ccccc43)cc2)n1 4.96%
CC(C)(C)c1n[nH]c2c1CCCC2 12%
O=C(NC1CCCCC1)C(c1ccco1)N(C(=O)c1csnn1)c1cccc(F)c1 (stereo not given) -7.73%
O=C(COc1ccccc1Cl)Nc1ccc(CN2CCCCC2)cc1 4.25%
CC(C)NC(=O)NNC(=O)c1nn(-c2ccc(F)cc2)ccc1=O 10.1%
COc1ccccc1CNc1nc2cc(-c3ccc(OC)c(OC)c3)sc2c(=O)n1C -2.27%
CC1=C(C(=O)N(C(C)C)C(C)C)CC(CC(=O)NC2CCCCC2)C(=O)N1CCCN1CCCC1=O (stereo not given) -26.2%
CCc1nc2ccccc2c(C(=O)OCC(=O)NCCCN2CCCC2=O)c1C 9.51%
COc1cc(OC)cc(C(=O)N2CCC(N3CCN(c4ccccc4OC)CC3)CC2)c1 -13.9%
Cc1oc2c(C)c3oc(=O)c(CCC(=O)O)c(C)c3cc2c1-c1ccccc1 -26.2%
CCCS(=O)(=O)NC(=O)C1(C)CCN(C(=O)c2cccs2)C1 (stereo not given) 16.8%
Cc1ccc(Cc2c(-c3ccc(Br)cc3)nc3cc(C)ccn23)cc1 -0.483%
COc1cccc(CNC(=O)[C@@H]2CCCN2)c1 -1.14%
CCn1c(=O)cc(OCC(=O)NCCc2ccc(OC)c(OC)c2)c2ccccc21 0.771%
COc1ccc(C(=O)OCC(=O)c2ccc(C)c(S(=O)(=O)N3CCOCC3)c2)cc1OC 14.9%
COc1cc2c(cc1OC)C(C)N(C(=O)c1ccc(C)o1)CC2 (stereo not given) -22.7%
CCN1C(=O)[C@H]2[C@@H](c3ccccc3)N[C@]3(CCCN(Cc4ccccc4)C3=O)[C@H]2C1=O -23.8%
COc1cc(C(C)=O)ccc1OC(=O)CN1C(=O)c2ccccc2C1=O 11.6%
Cc1cc(NC(=O)CCC(=O)N(CCc2ccccc2)C(C(=O)NC2CCCC2)c2ccco2)no1 (stereo not given) -7.32%
O=C(Nc1ncccc1Cl)c1cc2ccccc2o1 12.1%
c1ccc(CCc2nc(-c3ccc(-n4cccc4)cc3)no2)cc1 16.5%
CN(Cc1nc(-c2ccccc2)no1)C(=O)c1ccco1 -0.677%
O=C(Nc1ccc2c(c1)OCCO2)C(c1ccnc2ccccc12)N1CCN(c2ccc(F)cc2)CC1 (stereo not given) 18.7%
Cc1ccc(S(=O)(=O)N2C[C@@H]3CCCC[C@@H]3[C@@H](C)[C@H]2c2cn(Cc3ccccc3)c3ncccc23)cc1 14.3%
CC(C)N(C(=O)COC(=O)[C@H](C)NC(=O)c1ccco1)c1ccccc1 -30%
CC[C@@]12C(=O)N(c3ccc(C)cc3)C(=O)N1[C@H](c1ccc(OC)cc1)[C@@H]1C(=O)N(C(C)(C)C)C(=O)[C@@H]12 8.79%
CSc1ccccc1C(=O)N1CCCCC1 17.3%
C[C@H](CO)N1C[C@H](C)[C@@H](CN(C)C(=O)Nc2ccc3c(c2)OCO3)Oc2c(NC(=O)C3CC3)cccc2C1=O 19.7% [at 7.5 µM]
Cc1ccc(OCCSc2nc3ccccc3n2CCC(=O)O)cc1 -29.2%
Cc1ccc(C(=O)COC(=O)c2ccc3c(c2)C(=O)N(c2cccc4ncccc24)C3=O)cc1 5.95%
O=C(Nc1ccnn1C1CCN(Cc2ccc(OC(F)F)cc2)CC1)C1CCCC1 9.11%
CC(C)(C)NC(=O)C(c1ccc(F)cc1)N(Cc1ccco1)C(=O)CCC(=O)Nc1ccccn1 (stereo not given) -15.6%
COc1ccc2cc(C)c(SCC(=O)Nc3cc(C)on3)nc2c1 -7.14%
O=C(COC(=O)CC1CC2CCC1C2)Nc1ccc(F)cc1 (stereo not given) 6.05%
COc1ccc(NC(=O)N(C)C[C@H]2Oc3c(NC(=O)c4nc5ccccc5s4)cccc3C(=O)N([C@@H](C)CO)C[C@H]2C)cc1 -16.6%
COc1ccc(NC(=O)CN(C)CC(=O)Nc2ccc3c(c2)CCC3)cc1 -0.493%
C[C@H]1CN([C@@H](C)CO)C(=O)CCCn2nncc2CO[C@@H]1CN(C)C(=O)c1ccc2ccn(C)c2c1 -29.7%
COc1ccc(C(C)(C)C)cc1S(=O)(=O)n1ccnc1C -7.4%
COc1cc(C2C(C#N)=C(N)Oc3c2ccc2ccccc32)ccc1OCC(=O)Nc1ccc(C)cc1 (stereo not given) -23.9%
Cc1ccccc1NS(=O)(=O)c1ccc(C(=O)NCC2CCCO2)cc1 (stereo not given) -30.8%
COC(=O)c1c(NC(C)=O)sc2c1CCN(Cc1ccccc1)C2 -6.96%
CN(C(=O)c1cccc(NC(=O)Cc2ccc(NC(=O)C3CCN(C(=O)C4CCC4)CC3)cc2)c1)C1CC1 2.18%
CCN(CC)c1nc2c(c(=O)[nH]c(=O)n2C)n1Cc1ccccc1 12.5%
O=C(c1cccs1)c1coc2ccc(O)c(CN3CCOCC3)c12 25.9%
CC(C)C[C@H]1COc2cc(N3CC[C@H](O)C3)ccc2S(=O)(=O)N1 0.308%
CN(C)CCCCCN(C)Cc1cc2ccccc2o1 -28.2%
COc1ccc(C(CNC(=O)C(CC(C)C)NS(=O)(=O)c2ccc(C)cc2)N2CCOCC2)cc1 (stereo not given) 19%
CCC(=O)Nc1cccc(-c2cc3ccccc3oc2=O)c1 7.85%
COc1ccc(N2CC(NC(=O)N3CCc4ccccc43)CC2=O)cc1OC (stereo not given) -30%
COc1ccc(CC(=O)Nc2ccc(C(=O)NCC(C)C)cc2)cc1 8.8%
COc1ccc2c(CC(=O)NNC(=O)c3ccc(C)cc3)coc2c1 -14.3%
CS(=O)(=O)N(CC(=O)N1CCN(Cc2ccccc2)CC1)c1cccc(F)c1 -12.3%
COc1ccc(C(=O)NC2CC3CCCC(C2)N3Cc2ccccc2)c(OC)c1 (stereo not given) -22.3%
CCN(c1ccccc1)S(=O)(=O)c1ccc(OC)c(NC(=O)Cc2ccc(F)cc2)c1 11.3%
Cc1ccc(C(=O)C2CCN(CC(=O)Nc3nc(C)cs3)CC2)cc1 -21.3%
CCOc1ccccc1NC(=O)CN1c2cccc3cccc(c23)S1(=O)=O 12.7%
CC(=O)N(c1ccc2oc(=O)sc2c1)S(=O)(=O)c1ccc(C(=O)O)cc1 16.3%
Cc1ccccc1NC(=O)C(NC1CCCCC1)C(C)C (stereo not given) -3.21%
CN(C)c1ccc(C2Nc3ccccc3C(=O)N2NS(C)(=O)=O)cc1 (stereo not given) -14%
Cc1ccc(-n2c(SCC(=O)N(C)C)nnc2-c2ccco2)cc1 10.6%
CCCSc1ccc([C@@H]2[C@H]3C(=O)N(CC)C(=O)[C@H]3[C@]3(C(=O)OC)CCCN23)cc1 3.88%
Cc1cc(=O)[nH]c2c1c(C)nn2-c1ccccc1 -32.5%
Cc1ccc(N2CC(C(=O)Nc3ccc(S(=O)(=O)Nc4nccs4)cc3)CC2=O)cc1C (stereo not given) -9.3%
Cc1cc(NC(=O)CCC(=O)N(Cc2ccccc2)C(C(=O)NC2CCCC2)c2ccco2)no1 (stereo not given) -6.35%
CCOC(=O)c1nn(-c2ccccc2)cc1O 1.73%
Cc1cc(NC(=O)CCC(=O)N(Cc2ccco2)C(C(=O)NC2CCCC2)c2ccc(F)cc2)no1 (stereo not given) -29.1%
NCC(O)CN(c1ccccc1)c1ccccc1 (stereo not given) 0.799%
CCOc1ccc(-n2c(SCC(N)=O)nnc2-c2ccco2)cc1 10.9%
COc1ccc(C(=O)OC(C)C(=O)NCC2CCCCC2)cc1S(=O)(=O)N1CCOCC1 (stereo not given) -28.7%
Cc1noc(C)c1-c1ccc(C(=O)Nc2cccc(C(F)(F)F)c2)c2occc12 -0.448%
COc1ccc([C@H]2N[C@]3(CCCN(Cc4cccn4C)C3=O)[C@H]3C(=O)N(C)C(=O)[C@@H]23)cc1 1.22%
Cc1cc(NS(=O)(=O)c2ccc(NC(=O)COc3ccc(Br)cc3)cc2)nc(C)n1 -24%
CCN(CC(=O)Nc1c(F)cccc1F)C(=O)c1ccc2c(c1)NC(=O)C(C)S2 (stereo not given) -21.9%
CC(C)Cc1ccc(-c2cc3nc(NCCc4ccc(S(N)(=O)=O)cc4)ccn3n2)cc1 -12%
CCCn1nc(Oc2nc(N(C)C)nc(N(C)C)n2)ccc1=O -20.2%
CCCN1CCN(C(=O)c2ccc3nc(CC)c(CC)nc3c2)CC1 2.44%
O=C(NC1CCCCC1)C(c1ccco1)N(C(=O)c1csnn1)c1ccc(Cl)cc1 (stereo not given) 6.29%
O=C(Cc1ccc(Cl)cc1)Nc1ccc(CN2CCCCC2)cc1 4.66%
CC(C)C(=O)Nc1cccc(COc2ccccc2CN(Cc2ccccc2)C(=O)OC(C)(C)C)c1 -27.9%
C#CC1(NC(=O)NC(C)(C)C)CCCCC1 3.86%
CC(C)NC(=O)Nc1cccc2c1O[C@H](CN(C)S(=O)(=O)c1cccs1)[C@@H](C)CN([C@H](C)CO)C2=O -16.3%
CN(C)CCNC(=O)c1cccc(S(=O)(=O)Nc2ccccc2F)c1 14%

Compounds from the list above containing fluorine, in the order listed:
Activity change, negative = inhibition, inactive:
O=C(NC1CCCCC1)C(c1ccco1)N(C(=O)c1csnn1)c1cccc(F)c1 (stereo not given) -7.73%
CC(C)NC(=O)NNC(=O)c1nn(-c2ccc(F)cc2)ccc1=O 10.1%
O=C(Nc1ccc2c(c1)OCCO2)C(c1ccnc2ccccc12)N1CCN(c2ccc(F)cc2)CC1 (stereo not given) 18.7%
O=C(Nc1ccnn1C1CCN(Cc2ccc(OC(F)F)cc2)CC1)C1CCCC1 9.11%
CC(C)(C)NC(=O)C(c1ccc(F)cc1)N(Cc1ccco1)C(=O)CCC(=O)Nc1ccccn1 (stereo not given) -15.6%
O=C(COC(=O)CC1CC2CCC1C2)Nc1ccc(F)cc1 (stereo not given) 6.05%
CS(=O)(=O)N(CC(=O)N1CCN(Cc2ccccc2)CC1)c1cccc(F)c1 -12.3%
CCN(c1ccccc1)S(=O)(=O)c1ccc(OC)c(NC(=O)Cc2ccc(F)cc2)c1 11.3%
Cc1cc(NC(=O)CCC(=O)N(Cc2ccco2)C(C(=O)NC2CCCC2)c2ccc(F)cc2)no1 (stereo not given) -29.1%
Cc1noc(C)c1-c1ccc(C(=O)Nc2cccc(C(F)(F)F)c2)c2occc12 -0.448%
CCN(CC(=O)Nc1c(F)cccc1F)C(=O)c1ccc2c(c1)NC(=O)C(C)S2 (stereo not given) -21.9%
CN(C)CCNC(=O)c1cccc(S(=O)(=O)Nc2ccccc2F)c1 14%

By substructure, the compounds so far with bromine.
Activity change, negative = inhibition, inactive:
Cc1ccc(Cc2c(-c3ccc(Br)cc3)nc3cc(C)ccn23)cc1 -0.483%
Cc1cc(NS(=O)(=O)c2ccc(NC(=O)COc3ccc(Br)cc3)cc2)nc(C)n1 -24%
